Experiment [1] concerns the target GST–RhoG-L61 (UniProt P84095). Nature of the experiment: pull-down; 200 pmol recombinant GTPase bound to resin incubated with 800 µg cleared B16-F1 cell lysate in buffer L1 (50 mM Tris-HCl, 50 mM NaCl, 15 mM KCl, 15 mM MgCl2, 1 mM EGTA, 20 mM NaF, 1% PEG 3350, 1% Triton X-100, pH 7.5), 1 hour, 4°C; bound Sra-1 detected by western blot; only the target purified. In general terms: A western blot detects proteins with antibodies after separation by electrophoresis.

The chains behind the UniProt entries cited, without tags or fusion partners. Where a name states a change or a piece, a line headed by the entry shows the natural chain unless it says otherwise. A line that says so, or that is headed by a name, gives the form on record, which may keep a tag or linker.
UniProt P84095: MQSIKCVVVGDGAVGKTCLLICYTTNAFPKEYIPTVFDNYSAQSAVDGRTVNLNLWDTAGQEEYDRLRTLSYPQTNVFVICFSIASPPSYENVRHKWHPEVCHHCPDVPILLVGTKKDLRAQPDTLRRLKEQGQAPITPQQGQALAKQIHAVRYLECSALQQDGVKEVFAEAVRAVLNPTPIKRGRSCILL
GST–RhoG-L61 (P84095, form named): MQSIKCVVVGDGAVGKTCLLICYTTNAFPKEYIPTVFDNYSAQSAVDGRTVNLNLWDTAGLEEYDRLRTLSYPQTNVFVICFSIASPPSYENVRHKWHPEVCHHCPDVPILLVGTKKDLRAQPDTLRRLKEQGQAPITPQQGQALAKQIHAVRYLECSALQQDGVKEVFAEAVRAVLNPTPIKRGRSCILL
MBP-tagged RhoG-V12 (P84095, form named): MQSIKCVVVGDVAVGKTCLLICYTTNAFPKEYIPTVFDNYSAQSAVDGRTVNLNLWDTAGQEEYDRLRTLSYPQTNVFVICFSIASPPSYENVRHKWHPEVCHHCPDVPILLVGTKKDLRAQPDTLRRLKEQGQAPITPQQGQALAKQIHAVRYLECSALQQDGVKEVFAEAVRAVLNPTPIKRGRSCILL
UniProt Q7TMB8: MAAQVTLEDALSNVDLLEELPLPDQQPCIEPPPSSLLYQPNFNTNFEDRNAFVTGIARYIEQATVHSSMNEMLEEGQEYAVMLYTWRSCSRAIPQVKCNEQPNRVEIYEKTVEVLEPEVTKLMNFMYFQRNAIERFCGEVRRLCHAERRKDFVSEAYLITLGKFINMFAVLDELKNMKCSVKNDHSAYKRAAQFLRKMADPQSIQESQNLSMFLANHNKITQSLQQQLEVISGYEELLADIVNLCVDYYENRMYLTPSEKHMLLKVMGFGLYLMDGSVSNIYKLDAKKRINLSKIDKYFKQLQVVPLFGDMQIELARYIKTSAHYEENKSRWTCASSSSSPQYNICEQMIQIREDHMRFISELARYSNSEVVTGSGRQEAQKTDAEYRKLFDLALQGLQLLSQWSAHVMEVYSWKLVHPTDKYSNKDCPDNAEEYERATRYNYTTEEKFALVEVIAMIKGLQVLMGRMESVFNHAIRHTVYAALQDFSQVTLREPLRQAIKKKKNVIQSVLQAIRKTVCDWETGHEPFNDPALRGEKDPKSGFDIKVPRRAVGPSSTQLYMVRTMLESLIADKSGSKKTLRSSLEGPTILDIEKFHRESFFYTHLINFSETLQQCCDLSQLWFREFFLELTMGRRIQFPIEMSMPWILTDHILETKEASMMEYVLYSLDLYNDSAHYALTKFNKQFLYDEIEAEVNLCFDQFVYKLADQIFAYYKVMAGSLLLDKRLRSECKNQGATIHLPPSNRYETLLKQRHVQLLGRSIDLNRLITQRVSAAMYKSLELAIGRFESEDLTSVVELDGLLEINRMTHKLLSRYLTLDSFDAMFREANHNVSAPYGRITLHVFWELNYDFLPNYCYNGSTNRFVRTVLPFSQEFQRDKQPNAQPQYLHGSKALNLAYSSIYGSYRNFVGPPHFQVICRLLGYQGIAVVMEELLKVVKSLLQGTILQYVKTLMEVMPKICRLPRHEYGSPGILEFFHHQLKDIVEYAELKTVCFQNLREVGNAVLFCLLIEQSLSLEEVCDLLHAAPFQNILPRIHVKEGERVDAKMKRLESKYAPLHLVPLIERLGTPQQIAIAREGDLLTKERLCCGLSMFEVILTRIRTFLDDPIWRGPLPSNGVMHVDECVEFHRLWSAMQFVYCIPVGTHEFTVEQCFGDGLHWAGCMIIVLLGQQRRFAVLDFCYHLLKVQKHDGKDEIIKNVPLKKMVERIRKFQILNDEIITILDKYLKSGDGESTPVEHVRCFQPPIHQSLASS

In experiment [2] the target is MBP-tagged RhoG-V12 (UniProt P84095). Described as above.

No constants are given. Whether binding was seen depends on the method and setting. In cells and extracts the contact can be indirect.

In the case of Sra-1 (from UniProt Q7TMB8 1-1253), the binding result in experiment [1] was “no binding (tested: 200 pmol bait on resin, 800 µg lysate)”; in experiment [2] it was “no binding (tested: 200 pmol bait on resin, 800 µg lysate)”.

The values are drawn from article PMC3817791.
